Results taken from US20100166741A1.
These are yes or no findings as the source states them, for the method shown. Some results given as binding are weak or reduced against the parent protein; the word gives no strength. Blank lines part the entries; values can stand above or below the binder they belong to.

Columns and labels:
mouse BR3 (mouse) [1] = target: T1, mouse BR3 (mouse) (UniProt Q9D8D0); experiment: BHK binding assay
T1 sequence (looked up): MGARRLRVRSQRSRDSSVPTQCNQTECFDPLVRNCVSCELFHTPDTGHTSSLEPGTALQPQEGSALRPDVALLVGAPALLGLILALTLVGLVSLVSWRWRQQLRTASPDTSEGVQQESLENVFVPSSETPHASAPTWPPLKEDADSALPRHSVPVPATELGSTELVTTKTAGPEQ

mouse BR3 (mouse) [2] = target: T1, mouse BR3 (mouse); experiment: mapping study on mouse BR3

- binding (mouse BR3 (mouse) [1]): binds
B1: V3-1h (antibody, human IgG1, V domains shown)
VH: EVQLVESGGGLVQPGGSLRLSCAASGFTISSNSIHWVRQAPGKGLEWVAWITPSDGNTDYADSVKGRFTISADTSKNTAYLQMNSLRAEDTAVYYCARRVCYNRLGVCAGGMDYWGQGTLVTVSS
VL: DIQMTQSPSSLSASVGDRVTITCRASQDVSTAVAWYQQKPGKAPKLLIYSASFLYSGVPSRFSGSGSGTDFTLTISSLQPEDFATYYCQQSRITPPTFGQGTKVEIKR

- binding (mouse BR3 (mouse) [1]): binds
- binding (mouse BR3 (mouse) [2]): binds
B2: V3-1m (antibody, mouse IgG2a, V domains shown)
VH: B1 VH
VL: B1 VL
